Laboratory results reported in paper PMC4684287.
These are yes or no findings as the source states them, for the method shown. In cells and extracts the contact can be indirect. Some binding calls cover weakened binding; strength is not graded here. Sequences can lack the tags named with a protein.

The chains behind the UniProt entries cited, without tags or fusion partners. Where a name states a change or a piece, a line headed by the entry shows the natural chain unless it says otherwise.
UniProt Q9NR09: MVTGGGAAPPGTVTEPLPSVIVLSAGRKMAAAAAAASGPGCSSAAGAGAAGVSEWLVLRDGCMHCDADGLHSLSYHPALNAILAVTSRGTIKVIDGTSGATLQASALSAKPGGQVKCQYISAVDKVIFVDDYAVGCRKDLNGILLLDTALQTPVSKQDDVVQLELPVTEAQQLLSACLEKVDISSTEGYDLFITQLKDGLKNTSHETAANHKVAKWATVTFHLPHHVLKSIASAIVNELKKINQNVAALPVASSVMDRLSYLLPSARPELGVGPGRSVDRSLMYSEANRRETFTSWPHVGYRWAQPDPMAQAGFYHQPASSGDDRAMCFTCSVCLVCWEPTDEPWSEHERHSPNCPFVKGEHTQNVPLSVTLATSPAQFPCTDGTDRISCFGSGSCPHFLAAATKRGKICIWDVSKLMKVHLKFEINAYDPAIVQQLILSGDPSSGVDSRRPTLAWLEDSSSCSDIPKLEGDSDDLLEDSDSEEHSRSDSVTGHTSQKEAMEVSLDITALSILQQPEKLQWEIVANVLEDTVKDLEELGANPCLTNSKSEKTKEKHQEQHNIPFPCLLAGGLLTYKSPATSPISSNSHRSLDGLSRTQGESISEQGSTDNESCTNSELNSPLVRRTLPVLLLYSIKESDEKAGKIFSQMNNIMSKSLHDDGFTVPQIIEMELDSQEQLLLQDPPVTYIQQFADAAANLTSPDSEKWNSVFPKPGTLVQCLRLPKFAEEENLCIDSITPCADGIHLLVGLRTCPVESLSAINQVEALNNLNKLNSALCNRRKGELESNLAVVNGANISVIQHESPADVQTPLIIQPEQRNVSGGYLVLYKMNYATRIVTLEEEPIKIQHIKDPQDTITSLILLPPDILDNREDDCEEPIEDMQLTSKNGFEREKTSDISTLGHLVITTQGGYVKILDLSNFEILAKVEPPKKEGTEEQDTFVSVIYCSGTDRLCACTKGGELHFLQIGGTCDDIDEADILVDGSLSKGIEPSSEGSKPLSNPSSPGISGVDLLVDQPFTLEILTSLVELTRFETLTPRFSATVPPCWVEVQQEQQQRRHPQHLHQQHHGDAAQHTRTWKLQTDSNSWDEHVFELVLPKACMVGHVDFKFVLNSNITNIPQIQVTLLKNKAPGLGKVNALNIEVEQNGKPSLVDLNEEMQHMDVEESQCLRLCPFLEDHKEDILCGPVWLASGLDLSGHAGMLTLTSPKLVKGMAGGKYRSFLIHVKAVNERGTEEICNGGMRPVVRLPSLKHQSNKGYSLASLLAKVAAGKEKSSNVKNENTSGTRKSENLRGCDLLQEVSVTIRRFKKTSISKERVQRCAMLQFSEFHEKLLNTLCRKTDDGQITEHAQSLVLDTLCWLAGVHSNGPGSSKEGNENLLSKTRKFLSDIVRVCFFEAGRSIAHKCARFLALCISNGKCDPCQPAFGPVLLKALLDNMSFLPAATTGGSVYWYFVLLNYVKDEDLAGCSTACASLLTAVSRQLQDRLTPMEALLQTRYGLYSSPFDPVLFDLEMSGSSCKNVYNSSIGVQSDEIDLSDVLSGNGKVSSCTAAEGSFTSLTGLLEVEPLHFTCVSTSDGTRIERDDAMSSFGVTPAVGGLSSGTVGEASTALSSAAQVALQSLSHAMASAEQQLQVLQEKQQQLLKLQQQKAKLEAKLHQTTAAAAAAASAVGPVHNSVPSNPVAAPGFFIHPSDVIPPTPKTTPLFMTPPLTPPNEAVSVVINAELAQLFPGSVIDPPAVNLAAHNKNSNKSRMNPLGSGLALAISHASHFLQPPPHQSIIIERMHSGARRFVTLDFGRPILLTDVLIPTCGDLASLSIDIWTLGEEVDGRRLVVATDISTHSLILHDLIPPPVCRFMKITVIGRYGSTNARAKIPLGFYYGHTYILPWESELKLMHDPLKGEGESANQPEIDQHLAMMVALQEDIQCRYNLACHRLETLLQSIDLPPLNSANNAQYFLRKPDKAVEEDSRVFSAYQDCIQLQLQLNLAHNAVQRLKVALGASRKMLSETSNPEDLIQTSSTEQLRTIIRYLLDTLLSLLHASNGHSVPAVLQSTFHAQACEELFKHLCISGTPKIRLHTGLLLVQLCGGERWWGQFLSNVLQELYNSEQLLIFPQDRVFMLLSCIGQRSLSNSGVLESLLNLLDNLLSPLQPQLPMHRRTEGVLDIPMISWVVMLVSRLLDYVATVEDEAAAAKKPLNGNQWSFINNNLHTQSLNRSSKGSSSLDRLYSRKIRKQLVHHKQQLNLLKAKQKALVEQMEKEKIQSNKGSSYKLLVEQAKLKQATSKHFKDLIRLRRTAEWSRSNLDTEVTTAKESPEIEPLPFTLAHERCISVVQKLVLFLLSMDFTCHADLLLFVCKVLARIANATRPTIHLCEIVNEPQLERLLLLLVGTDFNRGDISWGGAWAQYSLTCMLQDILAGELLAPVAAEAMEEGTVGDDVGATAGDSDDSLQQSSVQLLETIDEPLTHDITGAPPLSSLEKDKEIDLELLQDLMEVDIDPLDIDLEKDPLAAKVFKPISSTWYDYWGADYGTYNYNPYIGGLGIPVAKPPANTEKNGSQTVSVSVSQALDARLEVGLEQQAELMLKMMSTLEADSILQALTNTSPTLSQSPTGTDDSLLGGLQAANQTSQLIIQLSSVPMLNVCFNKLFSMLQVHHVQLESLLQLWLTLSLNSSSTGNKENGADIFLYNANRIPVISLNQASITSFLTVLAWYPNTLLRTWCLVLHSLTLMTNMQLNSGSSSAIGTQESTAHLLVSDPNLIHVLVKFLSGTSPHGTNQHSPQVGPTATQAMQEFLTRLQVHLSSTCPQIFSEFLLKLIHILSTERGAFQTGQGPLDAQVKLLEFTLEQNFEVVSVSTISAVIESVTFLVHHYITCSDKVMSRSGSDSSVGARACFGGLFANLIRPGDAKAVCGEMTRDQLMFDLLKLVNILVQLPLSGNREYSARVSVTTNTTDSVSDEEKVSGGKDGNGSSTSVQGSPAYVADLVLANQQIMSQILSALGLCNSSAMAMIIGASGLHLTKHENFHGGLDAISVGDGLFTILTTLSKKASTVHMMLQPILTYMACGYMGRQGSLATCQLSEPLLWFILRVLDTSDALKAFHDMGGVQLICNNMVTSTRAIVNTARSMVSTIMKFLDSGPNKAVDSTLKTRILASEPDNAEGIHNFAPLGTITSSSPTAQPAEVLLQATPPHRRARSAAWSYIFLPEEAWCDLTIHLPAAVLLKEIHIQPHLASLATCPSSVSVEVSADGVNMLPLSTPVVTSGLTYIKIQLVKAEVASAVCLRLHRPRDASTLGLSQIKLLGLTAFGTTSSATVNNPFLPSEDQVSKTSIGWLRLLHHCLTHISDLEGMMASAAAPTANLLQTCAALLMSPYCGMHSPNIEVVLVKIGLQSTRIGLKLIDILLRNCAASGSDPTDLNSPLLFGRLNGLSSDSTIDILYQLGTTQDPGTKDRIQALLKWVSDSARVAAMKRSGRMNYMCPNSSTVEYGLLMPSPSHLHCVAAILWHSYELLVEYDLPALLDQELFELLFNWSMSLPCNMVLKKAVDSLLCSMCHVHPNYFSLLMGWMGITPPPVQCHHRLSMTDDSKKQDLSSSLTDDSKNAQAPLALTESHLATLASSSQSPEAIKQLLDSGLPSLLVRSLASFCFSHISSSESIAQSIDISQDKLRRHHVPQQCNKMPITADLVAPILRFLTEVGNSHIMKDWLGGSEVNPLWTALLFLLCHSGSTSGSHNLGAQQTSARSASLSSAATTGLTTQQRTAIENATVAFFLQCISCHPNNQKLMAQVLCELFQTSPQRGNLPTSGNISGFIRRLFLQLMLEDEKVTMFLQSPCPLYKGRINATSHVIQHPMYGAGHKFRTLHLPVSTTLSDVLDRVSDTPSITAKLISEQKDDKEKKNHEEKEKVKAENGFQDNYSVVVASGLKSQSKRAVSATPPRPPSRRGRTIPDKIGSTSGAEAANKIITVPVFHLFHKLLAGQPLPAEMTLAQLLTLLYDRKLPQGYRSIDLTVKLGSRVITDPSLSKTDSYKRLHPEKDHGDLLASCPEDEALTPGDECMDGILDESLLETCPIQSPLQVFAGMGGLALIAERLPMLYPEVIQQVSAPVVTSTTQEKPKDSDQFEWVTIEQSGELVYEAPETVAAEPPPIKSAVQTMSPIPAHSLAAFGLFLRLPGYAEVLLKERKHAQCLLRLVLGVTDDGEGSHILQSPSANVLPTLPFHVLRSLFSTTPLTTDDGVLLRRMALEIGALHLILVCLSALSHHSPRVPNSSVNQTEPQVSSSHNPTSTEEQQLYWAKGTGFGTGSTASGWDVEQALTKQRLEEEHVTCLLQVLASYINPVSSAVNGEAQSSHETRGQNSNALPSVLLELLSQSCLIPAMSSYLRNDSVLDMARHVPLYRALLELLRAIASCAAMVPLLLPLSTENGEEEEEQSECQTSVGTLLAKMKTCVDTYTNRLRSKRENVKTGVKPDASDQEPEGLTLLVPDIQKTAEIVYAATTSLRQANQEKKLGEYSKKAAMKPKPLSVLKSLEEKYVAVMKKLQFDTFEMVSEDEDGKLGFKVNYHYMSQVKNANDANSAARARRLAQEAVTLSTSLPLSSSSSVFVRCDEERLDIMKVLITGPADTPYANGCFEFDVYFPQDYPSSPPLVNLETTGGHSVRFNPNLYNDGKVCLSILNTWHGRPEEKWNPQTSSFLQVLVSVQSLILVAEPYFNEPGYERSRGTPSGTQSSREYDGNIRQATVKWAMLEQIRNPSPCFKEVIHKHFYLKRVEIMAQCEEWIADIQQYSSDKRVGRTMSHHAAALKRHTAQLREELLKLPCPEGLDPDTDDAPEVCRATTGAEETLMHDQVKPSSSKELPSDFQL

Key:
Test in all cases: co-IP; FLAG-BRUCE (WT, UBC C4666A or ΔUBC) immunoprecipitated with anti-FLAG M2 antibody from lysates of U2OS-shBRUCE stable cell lines co-transfected with Myc-USP8 and GFP-BRIT1; immunoblotting of the IP complex
[1] = molecular target: FLAG-tagged BRUCE UBC mutant C4666A, full length (human) (UniProt Q9NR09)
[2] = molecular target: FLAG-tagged wild type BRUCE, full length (4857 amino acids), shBRUCE-resistant (human) (UniProt Q9NR09)
[3] = molecular target: FLAG-tagged BRUCE with the UBC domain deleted (ΔUBC; aa 4605–4690) (human) (UniProt Q9NR09)

Measured: binding

B1: Myc-USP8 (enzyme, UniProt P40818 1-1118)
chain: MPAVASVPKELYLSSSLKDLNKKTEVKPEKISTKSYVHSALKIFKTAEECRLDRDEERAYVLYMKYVTVYNLIKKRPDFKQQQDYFHSILGPGNIKKAVEEAERLSESLKLRYEEAEVRKKLEEKDRQEEAQRLQQKRQETGREDGGTLAKGSLENVLDSKDKTQKSNGEKNEKCETKEKGAITAKELYTMMTDKNISLIIMDARRMQDYQDSCILHSLSVPEEAISPGVTASWIEAHLPDDSKDTWKKRGNVEYVVLLDWFSSAKDLQIGTTLRSLKDALFKWESKTVLRNEPLVLEGGYENWLLCYPQYTTNAKVTPPPRRQNEEVSISLDFTYPSLEESIPSKPAAQTPPASIEVDENIELISGQNERMGPLNISTPVEPVAASKSDVSPIIQPVPSIKNVPQIDRTKKPAVKLPEEHRIKSESTNHEQQSPQSGKVIPDRSTKPVVFSPTLMLTDEEKARIHAETALLMEKNKQEKELRERQQEEQKEKLRKEEQEQKAKKKQEAEENEITEKQQKAKEEMEKKESEQAKKEDKETSAKRGKEITGVKRQSKSEHETSDAKKSVEDRGKRCPTPEIQKKSTGDVPHTSVTGDSGSGKPFKIKGQPESGILRTGTFREDTDDTERNKAQREPLTRARSEEMGRIVPGLPSGWAKFLDPITGTFRYYHSPTNTVHMYPPEMAPSSAPPSTPPTHKAKPQIPAERDREPSKLKRSYSSPDITQAIQEEEKRKPTVTPTVNRENKPTCYPKAEISRLSASQIRNLNPVFGGSGPALTGLRNLGNTCYMNSILQCLCNAPHLADYFNRNCYQDDINRSNLLGHKGEVAEEFGIIMKALWTGQYRYISPKDFKITIGKINDQFAGYSQQDSQELLLFLMDGLHEDLNKADNRKRYKEENNDHLDDFKAAEHAWQKHKQLNESIIVALFQGQFKSTVQCLTCHKKSRTFEAFMYLSLPLASTSKCTLQDCLRLFSKEEKLTDNNRFYCSHCRARRDSLKKIEIWKLPPVLLVHLKRFSYDGRWKQKLQTSVDFPLENLDLSQYVIGPKNNLKKYNLFSVSNHYGGLDGGHYTAYCKNAARQRWFKFDDHEVSDISVSSVKSSAAYILFYTSLGPRVTDVAT
binds: all assays above

B2: GFP-BRIT1 (protein, UniProt Q8NEM0 1-835)
chain: MAAPILKDVVAYVEVWSSNGTENYSKTFTTQLVDMGAKVSKTFNKQVTHVIFKDGYQSTWDKAQKRGVKLVSVLWVEKCRTAGAHIDESLFPAANMNEHLSSLIKKKRKCMQPKDFNFKTPENDKRFQKKFEKMAKELQRQKTNLDDDVPILLFESNGSLIYTPTIEINSRHHSAMEKRLQEMKEKRENLSPTSSQMIQQSHDNPSNSLCEAPLNISRDTLCSDEYFAGGLHSSFDDLCGNSGCGNQERKLEGSINDIKSDVCISSLVLKANNIHSSPSFTHLDKSSPQKFLSNLSKEEINLQRNIAGKVVTPDQKQAAGMSQETFEEKYRLSPTLSSTKGHLLIHSRPRSSSVKRKRVSHGSHSPPKEKCKRKRSTRRSIMPRLQLCRSEDRLQHVAGPALEALSCGESSYDDYFSPDNLKERYSENLPPESQLPSSPAQLSCRSLSKKERTSIFEMSDFSCVGKKTRTVDITNFTAKTISSPRKTGNGEGRATSSCVTSAPEEALRCCRQAGKEDACPEGNGFSYTIEDPALPKGHDDDLTPLEGSLEEMKEAVGLKSTQNKGTTSKISNSSEGEAQSEHEPCFIVDCNMETSTEEKENLPGGYSGSVKNRPTRHDVLDDSCDGFKDLIKPHEELKKSGRGKKPTRTLVMTSMPSEKQNVVIQVVDKLKGFSIAPDVCETTTHVLSGKPLRTLNVLLGIARGCWVLSYDWVLWSLELGHWISEEPFELSHHFPAAPLCRSECHLSAGPYRGTLFADQPAMFVSPASSPPVAKLCELVHLCGGRVSQVPRQASIVIGPYSGKKKATVKYLSEKWVLDSITQHKVCAPENYLLSQ
binds: all assays above
